No constants are given. Whether binding was seen depends on the method and setting. Some entries that bind do so weakly or less than the wild type.

Binding data for one molecule are collected here from US20060030015A1 (published 2006).

The test concerns the target light chain of antibody 41S-2 (41S-2-L). Briefly: ELISA screening of hybridomas. In general terms: In an ELISA, binding on a coated surface is turned into a signal by an enzyme label.

B1: i41-7 intact antibody (antibody, V domains shown)
VH: EIQLQQSGPELVRPGASVKVSCKASGYSFTNSIMYWVRQSHGKSLEWIGYIDPYNGGTSYNQKFKGKATLTVDKSSSTAFMHLNSLTSEDSAVYFCARFIVVVADVMDYWGQGTSVTVSS
VL: DIVMTQSHKFMSTSVGDRVSITCKASQDVSTAVAWYQQKPGQSPKLLIYWASTRHTEVPDRFTGSGSGTDYTLTISSVQAEDLALYYCQQHYNTPLTFGAGTKLELKR
Take B1: the binding result is recorded as “binds”.
